Reference: publication PMC13226697, “Stress-induced OMA1-mediated cleavage of AIFM1 suppresses cell growth by controlling mitochondrial OXPHOS activity” (The EMBO Journal, 2026)
No constants are given. Whether binding was seen depends on the method and setting. Binding seen in cells or lysates may run through a third protein. Binding calls can cover weak binding; strength is not graded here.

Amino acid sequences for entries named in this document (tags omitted). A change or cut given only in a name is not applied to a line headed by its entry.
UniProt O95831: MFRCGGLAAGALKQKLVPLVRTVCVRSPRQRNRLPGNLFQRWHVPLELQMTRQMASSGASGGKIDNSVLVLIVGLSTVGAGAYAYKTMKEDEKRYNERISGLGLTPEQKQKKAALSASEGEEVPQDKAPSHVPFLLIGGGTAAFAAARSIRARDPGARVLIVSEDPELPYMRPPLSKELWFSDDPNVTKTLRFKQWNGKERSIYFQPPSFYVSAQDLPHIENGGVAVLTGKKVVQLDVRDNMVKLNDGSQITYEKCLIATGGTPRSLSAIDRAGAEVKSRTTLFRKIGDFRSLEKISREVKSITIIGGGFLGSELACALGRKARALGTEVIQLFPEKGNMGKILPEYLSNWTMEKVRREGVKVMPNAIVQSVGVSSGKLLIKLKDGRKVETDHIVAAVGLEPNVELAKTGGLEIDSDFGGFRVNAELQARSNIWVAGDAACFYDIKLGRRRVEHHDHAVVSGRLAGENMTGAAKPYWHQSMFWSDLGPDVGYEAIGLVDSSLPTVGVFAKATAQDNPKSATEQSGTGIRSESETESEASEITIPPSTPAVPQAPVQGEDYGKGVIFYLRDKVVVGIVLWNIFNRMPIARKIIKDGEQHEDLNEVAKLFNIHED

What was measured:
[1] = target: T1, TIM23, endogenous human (human (endogenous in Flp-In T-REx-293 and HeLa)) (UniProt O14925); test: proximity ligation; HeLa cells, antibody pairs (AIFM1 polyclonal, TIM23 monoclonal), with or without CHX
T1 sequence: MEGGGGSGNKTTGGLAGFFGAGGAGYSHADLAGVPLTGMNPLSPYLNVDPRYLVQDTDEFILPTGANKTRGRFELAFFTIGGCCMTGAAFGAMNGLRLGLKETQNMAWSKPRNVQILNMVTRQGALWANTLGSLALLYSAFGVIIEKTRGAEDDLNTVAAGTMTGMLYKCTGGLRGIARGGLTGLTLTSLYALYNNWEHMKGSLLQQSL

[2] = target: T1, TIM23, endogenous human (human (endogenous in Flp-In T-REx-293 and HeLa)); test: co-IP; HeLa lysates, with or without CHX (10 μg/mL), immunoprecipitated with anti-TIM23 monoclonal antibody or control IgG (anti-GFP), western blot

## AIFM1, endogenous human (from UniProt O95831)
[1]
  binding: binds
[2]
  binding: binds
